{"source": "PubChem BioAssay AID1259283 – Sanger Institute, 2017", "screen": "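Kinases needed for HT115 growth and partners for drug synergy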 (primary screen)", "system": "HT115 colorectal cancer cells", "reagent": "siRNA pool against human genes", "treatment": "anchor drug given one day after siRNA: BYL719 at 1 µM, cetuximab at 5 µg/ml, trametinib at 10 nM, or DMSO vehicle alone", "read-out": "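Viability normalised to non-targeting pool #2 wells and averaged over replicates, robust z-score against control wells, and a synergy score for each of three drugs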", "direction": "robust z-score, knock-down alone: higher = more viable cells after knock-down", "call rule": "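Essential gene: robust z-score less than -3 with no drug added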", "calls": "active = essential (z below -3, no drug); inactive = no change without drug", "note": "The deposit covers 794 reagents; shown is a part drawn at random. Over the whole deposit, 14 (1.8%) are marked active. 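Calls reflect only viability loss without drug; drug synergy does not enter the call.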 Not all columns of the deposit are shown. The record does not give: the amount of reagent, the time to read-out."}
{"target gene": "NLK (nemo like kinase)", "robust z-score, knock-down alone": -1.93, "activity call": "inactive"}
{"target gene": "PIKFYVE (phosphoinositide kinase, FYVE-type zinc finger containing)", "robust z-score, knock-down alone": 0.789, "activity call": "inactive"}
{"target gene": "PIP4K2A (phosphatidylinositol-5-phosphate 4-kinase type 2 alpha)", "robust z-score, knock-down alone": 0.789, "activity call": "inactive"}
{"target gene": "SKAP1 (src kinase associated phosphoprotein 1)", "robust z-score, knock-down alone": 0.565, "activity call": "inactive"}
{"target gene": "BMP2K (BMP2 inducible kinase)", "robust z-score, knock-down alone": -0.59, "activity call": "inactive"}
{"target gene": "TWF1 (twinfilin actin binding protein 1)", "robust z-score, knock-down alone": -0.983, "activity call": "inactive"}
{"target gene": "TRIO (trio Rho guanine nucleotide exchange factor)", "robust z-score, knock-down alone": 0.672, "activity call": "inactive"}
{"target gene": "PRPS2 (phosphoribosyl pyrophosphate synthetase 2)", "robust z-score, knock-down alone": 0.789, "activity call": "inactive"}
{"target gene": "PLK1 (polo like kinase 1)", "robust z-score, knock-down alone": -6.94, "activity call": "active"}
{"target gene": "AMER1 (APC membrane recruitment protein 1)", "robust z-score, knock-down alone": 0.789, "activity call": "inactive"}
{"target gene": "FER (FER tyrosine kinase)", "robust z-score, knock-down alone": 0.744, "activity call": "inactive"}
{"target gene": "WEE1 (WEE1 G2 checkpoint kinase)", "robust z-score, knock-down alone": -2, "activity call": "inactive"}
{"target gene": "SHPK (sedoheptulokinase)", "robust z-score, knock-down alone": 0.789, "activity call": "inactive"}
{"target gene": "CIB2 (calcium and integrin binding family member 2)", "robust z-score, knock-down alone": 0.789, "activity call": "inactive"}
{"target gene": "TSSK6 (testis specific serine kinase 6)", "robust z-score, knock-down alone": 0.789, "activity call": "inactive"}
{"target gene": "PHKB (phosphorylase kinase regulatory subunit beta)", "robust z-score, knock-down alone": 0.789, "activity call": "inactive"}
{"target gene": "INSRR (insulin receptor related receptor)", "robust z-score, knock-down alone": 0.789, "activity call": "inactive"}
{"target gene": "RPS6KA5 (ribosomal protein S6 kinase A5)", "robust z-score, knock-down alone": -0.648, "activity call": "inactive"}
{"target gene": "ROCK2 (Rho associated coiled-coil containing protein kinase 2)", "robust z-score, knock-down alone": -0.769, "activity call": "inactive"}
{"target gene": "CAMK1 (calcium/calmodulin dependent protein kinase I)", "robust z-score, knock-down alone": 0.789, "activity call": "inactive"}
{"target gene": "ETNK1 (ethanolamine kinase 1)", "robust z-score, knock-down alone": 0.789, "activity call": "inactive"}
{"target gene": "PHKG2 (phosphorylase kinase catalytic subunit gamma 2)", "robust z-score, knock-down alone": 0.789, "activity call": "inactive"}
{"target gene": "CTCF (CCCTC-binding factor)", "robust z-score, knock-down alone": 0.789, "activity call": "inactive"}
{"target gene": "ROR1 (ROR family WNT receptor 1)", "robust z-score, knock-down alone": 0.735, "activity call": "inactive"}
{"target gene": "MAP4K4 (mitogen-activated protein kinase kinase kinase kinase 4)", "robust z-score, knock-down alone": -0.0596, "activity call": "inactive"}
{"target gene": "RTN4 (reticulon 4)", "robust z-score, knock-down alone": 0.687, "activity call": "inactive"}
{"target gene": "CDK8 (cyclin dependent kinase 8)", "robust z-score, knock-down alone": 0.789, "activity call": "inactive"}
{"target gene": "MAP2K1 (mitogen-activated protein kinase kinase 1)", "robust z-score, knock-down alone": 0.774, "activity call": "inactive"}
